This experiment addresses T1, St13 (mouse (endogenous in pancreatic acinar cells of PRSS1Tg mice)) (UniProt Q99L47).
T1 sequence: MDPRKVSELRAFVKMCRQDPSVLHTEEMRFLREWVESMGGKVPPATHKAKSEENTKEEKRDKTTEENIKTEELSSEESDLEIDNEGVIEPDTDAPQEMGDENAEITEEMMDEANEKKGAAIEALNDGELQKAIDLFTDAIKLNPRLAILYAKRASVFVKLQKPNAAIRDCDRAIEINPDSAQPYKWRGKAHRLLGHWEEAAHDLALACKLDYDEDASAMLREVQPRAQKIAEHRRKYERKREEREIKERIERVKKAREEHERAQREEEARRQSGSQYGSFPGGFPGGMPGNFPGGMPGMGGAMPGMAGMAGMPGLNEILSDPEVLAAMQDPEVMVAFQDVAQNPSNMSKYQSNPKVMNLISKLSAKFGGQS
Description: affinity purification with mass spectrometry; co-IP of St13 from pancreatic acinar cells of PRSS1Tg mice (untreated group A, ethanol-treated group B, IgG group C); SDS-PAGE, silver staining, trypsin digest, mass spectrometry with DIA quantification.

The values below come from publication PMC9103046.

Results are given in words; binding and its absence hold for the method and conditions named. In cells and extracts the contact can be indirect. Here binding means that the protein was enriched with, or labelled near, the bait; the list need not be complete.

B1: Stromal cell-derived factor 2-like 1 (Sdf2l1) (protein, UniProt Q9ESP1 29-221)
chain: SKASAGLVTCGSVLKLLNTHHKVRLHSHDIKYGSGSGQQSVTGVEESDDANSYWRIRGGSEGGCPRGLPVRCGQAVRLTHVLTGKNLHTHHFPSPLSNNQEVSAFGEDGEGDDLDLWTVRCSGQHWEREASVRFQHVGTSVFLSVTGEQYGNPIRGQHEVHGMPSANAHNTWKAMEGIFIKPGADLSTGHDEL
Regarding B1, the binding entry is “binds”.
